Laboratory results as given in US11920185B2, “Method of inactivating microbes by citraconic anhydride” (Roche Molecular Systems, Inc., priority 2015, dated 2024).

Test system: lambda bacteriophage DNA
Assay: qPCR amplification of DNA from citraconic anhydride-treated lambda bacteriophage

With `CC1=CC(=O)OC1=O` [citraconic anhydride] the “Average Cp” value (0.11 mM Cit, 50 copies/reaction) was 32.36, the “Average Cp” value (0.11 mM Cit, 500 copies/reaction) was 28.82 and the “Average Cp” value (0.11 mM Cit, 5000 copies/reaction) was 25.18. For the same compound, the “Average Cp” value (1.1 mM Cit, 50 copies/reaction) was 32.24, the “Average Cp” value (1.1 mM Cit, 500 copies/reaction) was 28.71 and the “Average Cp” value (1.1 mM Cit, 5000 copies/reaction) was 25.25. The “Average Cp” value (11 mM Cit, 50 copies/reaction) was 31.19, the “Average Cp” value (11 mM Cit, 500 copies/reaction) was 27.89 and the “Average Cp” value (11 mM Cit, 5000 copies/reaction) was 25.30. The “Ct compared with untreated phage” value (phage treated with 11 mM Cit) was “same Ct as untreated (active) phage”.
